Reference: article PMC7819943, “Rice protein-binding microarrays: a tool to detect cis-acting elements near promoter regions in rice”
The list shows a part of the results.

Amino acid sequences for entries named in this document (tags omitted).
UniProt Q0JBA9, entry or part of it: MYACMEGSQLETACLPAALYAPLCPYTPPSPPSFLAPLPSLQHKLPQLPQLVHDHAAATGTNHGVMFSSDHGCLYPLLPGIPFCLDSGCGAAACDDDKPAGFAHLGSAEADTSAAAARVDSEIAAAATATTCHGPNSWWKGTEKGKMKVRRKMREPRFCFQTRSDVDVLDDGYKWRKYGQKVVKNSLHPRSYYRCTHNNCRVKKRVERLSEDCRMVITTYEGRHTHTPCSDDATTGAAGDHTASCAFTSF

target: OsWRKY34 (Oryza sativa, UniProt Q0JBA9 1-250); assay: protein-binding microarray (RPBM); PBS, 2% BSA, 51.3 ng/ul salmon testes DNA, 50 uM zinc acetate, 200 nM TF, 25 C, 1 h; high values mean tight binding; details: protein: recombinant; tags: N-terminal polyhistidine and DsRed monomer fusion (pET32a); label: CyDye5-dUTP incorporated in the synthesized complementary strand; 3' TTTTT single-stranded linker to array surface; dsDNA, one strand shown
Procedure, shortened: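 Binding signal is reported as fluorescence intensity per feature (arbitrary units) from an Axon 4000B scanner. Incubation used 200 nM of each Ni–NTA-purified, N-terminally polyhistidine- and DsRed-fused transcription factor from E. coli BL21-CodonPlus on a double-stranded custom Agilent array for 1 h at 25 °C, with 50 µM zinc acetate in the buffer, followed by washing.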

Sequence	binding signal
TTTGTTGTGTGTTCTCCTCTTTGTTGAGGTGTAAATCTAACGGAGTCACCTAGTGCAG	8060 fluorescence intensity (a.u.)
CCAACGGCCCACCCTATAGCTAGCGCCACCACCGACACCACGGAGTCACCTAGTGCAG	9090 fluorescence intensity (a.u.)
TGATTAATTTGGTCAAATCTTTGTGATGATTTTTGCTCCTCGGAGTCACCTAGTGCAG	8590 fluorescence intensity (a.u.)
TGTGTACATCTACACCACAATACCGTACCCTACATCTCTCCGGAGTCACCTAGTGCAG	11900 fluorescence intensity (a.u.)
GGTACCCATAATCTCCACGTGATCTTTTTTATTTTTGTTCCGGAGTCACCTAGTGCAG	11300 fluorescence intensity (a.u.)
GCACTTTATCTTAACTATCTTAGTCTGTATGGTTTTTCTGCGGAGTCACCTAGTGCAG	8280 fluorescence intensity (a.u.)
ATATAACGTTTGACTCCTCGTCTTATTTAAAAATTTTCTACGGAGTCACCTAGTGCAG	10700 fluorescence intensity (a.u.)
TGACTTTTTAGCATATGTTTGACCGTTCGTCTTATTCAAACGGAGTCACCTAGTGCAG	13600 fluorescence intensity (a.u.)
ATGTTAAGTTTCAGCATATAAACTTCTGCTGTCTCTGTTACGGAGTCACCTAGTGCAG	8380 fluorescence intensity (a.u.)
GTTTGTTACTTGTATTTCATTACGATTTATCTGTCGTACCCGGAGTCACCTAGTGCAG	9640 fluorescence intensity (a.u.)
GGCTGGTTTGGTTGGTTGAGAATACCTTTTCTTTTTCCTTCGGAGTCACCTAGTGCAG	29100 fluorescence intensity (a.u.)
ACGTACGATCACCACATGTAAATCGGTCAAGTCCAACACTCGGAGTCACCTAGTGCAG	8030 fluorescence intensity (a.u.)
GGCGGGGCGGTGGCGTTGGTCCCGCCGCGGCGGGGCTTGCCGGAGTCACCTAGTGCAG	8030 fluorescence intensity (a.u.)
CATAATTTGTGCTAAGTGCTAACAGTCTTCATTTGTTTTCCGGAGTCACCTAGTGCAG	10400 fluorescence intensity (a.u.)
ATTACACTTTTCTCATGTAACATCTCCGGTGGTTTGAGCACGGAGTCACCTAGTGCAG	10400 fluorescence intensity (a.u.)
TAGAACTTAGAAGGCTATGTTTGGTACTTCCTCGTTTCACCGGAGTCACCTAGTGCAG	9000 fluorescence intensity (a.u.)
GGTGGTCTTCTTTCCCGCATCCTCTTCGCCACTTATATTGCGGAGTCACCTAGTGCAG	8180 fluorescence intensity (a.u.)
GCCTCCTCCTCGCGCGCACCCGCCGGAGCCGCCTCACCCTCGGAGTCACCTAGTGCAG	11200 fluorescence intensity (a.u.)
TTTATTTTCTCGATATGTGTTTATAGCTAGCTCTTACTTTCGGAGTCACCTAGTGCAG	12300 fluorescence intensity (a.u.)
ACGCCGTTGACTTTTTTAAACATGTTTAACCGTTCATCTTCGGAGTCACCTAGTGCAG	47400 fluorescence intensity (a.u.)
GCACACCACCAACCTGACCAGCTGCCAGCTCTCACTTTCTCGGAGTCACCTAGTGCAG	9160 fluorescence intensity (a.u.)

3 entries picked at random from the list so far:
Sequence	binding signal
ACGCCGTTGACTTTTTTAAACATGTTTAACCGTTCATCTTCGGAGTCACCTAGTGCAG	47400 fluorescence intensity (a.u.)
GTTTGTTACTTGTATTTCATTACGATTTATCTGTCGTACCCGGAGTCACCTAGTGCAG	9640 fluorescence intensity (a.u.)
TGATTAATTTGGTCAAATCTTTGTGATGATTTTTGCTCCTCGGAGTCACCTAGTGCAG	8590 fluorescence intensity (a.u.)

The listing continues.

Sequence	binding signal
ACTTTCCACATCAAGCATGCGCACATCTTCCTTGATCATCCGGAGTCACCTAGTGCAG	8590 fluorescence intensity (a.u.)
GTTTGCCGATCATATGCTCTCTTTCTCTCTTCATACTCAACGGAGTCACCTAGTGCAG	8990 fluorescence intensity (a.u.)
TCTTCAAGCAACCACCAGCCATCGTTGTCAACAACATTGACGGAGTCACCTAGTGCAG	8600 fluorescence intensity (a.u.)
TTGTGTTCTTGTTCCTACTTTGAAATGTAATTGTGATTTTCGGAGTCACCTAGTGCAG	8550 fluorescence intensity (a.u.)
CGTCACCACGCCACACCCCATTCGCTCGTTAACGGGTCCGCGGAGTCACCTAGTGCAG	10200 fluorescence intensity (a.u.)
CGTTAGTCCGTTTTGCTTTTCTTATTGTAGTTCAGTTCTTCGGAGTCACCTAGTGCAG	8350 fluorescence intensity (a.u.)
TGATTTTTTGCCCCTGCACTTCTCCTCCTTTTGCTCGGGGCGGAGTCACCTAGTGCAG	8830 fluorescence intensity (a.u.)
ATAAGGGCAGATTTTGTCGTAAGCAATGATTGGATTTCACCGGAGTCACCTAGTGCAG	8580 fluorescence intensity (a.u.)
AACTCCTTGGGTCCCAGCTTCACCGGCTTCGCCTCCTCTTCGGAGTCACCTAGTGCAG	8970 fluorescence intensity (a.u.)
ATCGTCTTCCACCATGTACCACAAGTCCACAACACACTGGCGGAGTCACCTAGTGCAG	8610 fluorescence intensity (a.u.)
GCGGCCACCTCTCCCGCGCTCACCACCTGTTCGATCAAATCGGAGTCACCTAGTGCAG	11500 fluorescence intensity (a.u.)
TTAGGGAAAAAAATGTTTGTATGTGTCAGTTCCGATTTCCCGGAGTCACCTAGTGCAG	8880 fluorescence intensity (a.u.)
TAACTCATGTGTACCTACACCCTCCTAAGTATCCTCTCAACGGAGTCACCTAGTGCAG	8310 fluorescence intensity (a.u.)
TTGTGCTGGTTTTGGTTTTGGTTTTGGGTTGCATGTATGTCGGAGTCACCTAGTGCAG	9790 fluorescence intensity (a.u.)
TTACCCCGGTTTCTTCCGCGGTTTTTCCTCGTCCTGTGCACGGAGTCACCTAGTGCAG	9040 fluorescence intensity (a.u.)
TGGCAGGGTTGCATGGTTCTGGAGGGCGGGCTGTTATATTCGGAGTCACCTAGTGCAG	13500 fluorescence intensity (a.u.)
AGCTCGAGCTCATTCGCATTCCGGAGGGGAGGGAGGGATGCGGAGTCACCTAGTGCAG	10400 fluorescence intensity (a.u.)
TTCTTCTGCTATTTGTTTCTCCTCCTATCTCCAAATCTAACGGAGTCACCTAGTGCAG	8660 fluorescence intensity (a.u.)
CCTGCGTTCTCTGCTTGCCATCGGCTCCACGATCCCCAACCGGAGTCACCTAGTGCAG	10700 fluorescence intensity (a.u.)
TCTATTAATTTGCTACCCTTTCTGCATCACGGCCCTTATTCGGAGTCACCTAGTGCAG	8280 fluorescence intensity (a.u.)
TGGTTGGGGAGGAGCGCCCATAATTAGAGCCCTGGGATGTCGGAGTCACCTAGTGCAG	8480 fluorescence intensity (a.u.)
